Laboratory results: ChEMBL document CHEMBL4177670, “Potential antimicrobial agents from triazole-functionalized 2H-benzo[b][1,4]oxazin-3(4H)-ones” (2017)
≈ marks a conversion by molar mass, not a printed value.

System: Pseudomonas aeruginosa
Assay: microbe, parasite or virus in culture
Details: MTCC 2453, 24 h

Which MIC does the source give for `O=C(O)c1cn(C2CC2)c2cc(N3CCNCC3)c(F)cc2c1=O` [CIPROFLOXACIN] here?
Its MIC is 0.9 µg/mL (≈ 2.72 µM).
